{"source": "patent US5116947", "about": "(dated 1992)", "experiment": "general procedure: solution-phase peptide synthesis; DCC/HOBt", "settings": "coupling step"}
{"substance": "(m)Lys(Boc)-Asp(Bu^t)-Val-Tyr(Bu^t)-OBu^t (step 2)", "values": [{"measurement": "step yield", "result": 76, "unit": "%"}]}
{"substance": "[(m)Lys(Boc)-(D)-Arg(Mtr)NH2 ]-Asp(Bu^t)-Val-Tyr(Bu^t)-OBu^t", "values": [{"measurement": "step yield", "result": 90, "unit": "%"}]}
